Experimental data taken from patent publication US20240132603A1.
Where a chain is given by its changes, count along the chain named. These are yes or no findings as the source states them, for the method shown. Some binding calls cover weakened binding; strength is not graded here.

Sequences of proteins named here, by UniProt entry; tags and fusion partners are left off. A change or cut given only in a name is not applied to a line headed by its entry. A line that says so, or that is headed by a name, gives the form on record, which may keep a tag or linker.
cynomolgus monkey CCR8 (G7NYJ2, form named): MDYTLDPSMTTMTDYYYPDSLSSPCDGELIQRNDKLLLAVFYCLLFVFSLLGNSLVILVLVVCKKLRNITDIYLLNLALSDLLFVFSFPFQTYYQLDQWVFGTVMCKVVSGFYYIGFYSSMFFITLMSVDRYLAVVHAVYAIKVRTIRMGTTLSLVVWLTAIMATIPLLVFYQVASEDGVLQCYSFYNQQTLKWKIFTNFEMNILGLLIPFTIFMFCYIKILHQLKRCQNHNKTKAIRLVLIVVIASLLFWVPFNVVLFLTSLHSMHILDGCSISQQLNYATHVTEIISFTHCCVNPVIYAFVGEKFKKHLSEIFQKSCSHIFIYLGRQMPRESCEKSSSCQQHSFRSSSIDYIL

B1: PR004523 (antibody, human IgG1, kappa, V domains shown)
VH: EVQLVESGGGLVQPGGSLRLSCAASGFTFNTYAMNWVRQAPGKGLEWVSRIRSKSNNYATYYADSVKDRFTISRDDSKSTLYLQMNSLRAEDTAVYYCVRGKENGNYYAMDFWGQGTTVTVSS
VL: DIVMTQSPLSLPVTPGEPASISCRSSKSLLHSNGNTYLYWFLQKPGQSPQLLIYRMSNLASGVPDRFSGSGSGTDFTLKISRVEAEDVGVYYCMQHLEYPLTFGQGTKLEIKR
B2: PR004660 (antibody, human IgG1, kappa, V domains shown)
VH: B1 VH with N30S, G105A
VL: B1 VL with N35K, T36I
B3: PR004526 (antibody, human IgG1, kappa, V domains shown)
VH: B1 VH
VL: B1 VL with P15L, E17Q, N35K, T36I, L42Q, K44R, Q50R
B4: PR004661 (antibody, human IgG1, kappa, V domains shown)
VH: B1 VH with N30S, N104Q
VL: B1 VL with N35K, T36I
B5: PR004527 (antibody, human IgG1, kappa, V domains shown)
VH: B1 VH with R19K, P41S, S49G, R89K, A90T
VL: B1 VL with P15L, E17Q, N35K, T36I, L42Q, K44R, Q50R
B6: PR004521 (antibody, human IgG1, kappa, V domains shown)
VH: B1 VH with R19K, P41S, S49G, R89K, A90T
VL: B1 VL with N35K, T36I
B7: PR004524 (antibody, human IgG1, kappa, V domains shown)
VH: B1 VH with R19K, P41S, S49G, R89K, A90T
VL: B1 VL
B8: PR004519 (antibody, human IgG1, kappa, V domains shown)
VH: B1 VH with Q13K, S49G, R89K, A90T
VL: B1 VL with N35K, T36I
B9: PR004522 (antibody, human IgG1, kappa, V domains shown)
VH: B1 VH with Q13K, S49G, R89K, A90T
VL: B1 VL
B10: PR004324 (antibody, human IgG1, kappa, V domains shown)
VH: EVQLVESGGGLVQPKGSLKLSCAASGFTFNTYAMNWVRQAPGKGLEWVARIRSKSNNYATYYADSVKDRFTISRDDSQSMLYLQMNNLKTEDTAMYYCVRGKENGNYYAMDFWGQGTSVTVSA
VL: DIVMTQAAPSVPVTPGESVSISCRSSKSLLHSNAKIYLYWFLQRPGQSPQLLIYRMSNLASGVPDRFSGSGSGTAFTLRISRVEAEDVGVYYCMQHLEYPLTFGAGTKLEIKR
B11: PR004343 (antibody, human IgG1, kappa, V domains shown)
VH: B10 VH
VL: B1 VL with P15L, E17Q, N35K, T36I, L42Q, K44R, Q50R
B12: PR004330 (antibody, human IgG1, kappa, V domains shown)
VH: B1 VH with Q13K, S49G, R89K, A90T
VL: B10 VL with A34G
B13: PR004326 (antibody, human IgG1, kappa, V domains shown)
VH: B10 VH with G105A
VL: B10 VL with A34G
B14: PR004335 (antibody, human IgG1, kappa, V domains shown)
VH: B1 VH with F112Y
VL: B10 VL with A34G
B15: PR004328 (antibody, human IgG1, kappa, V domains shown)
VH: B10 VH with N30S
VL: B10 VL with A34G
B16: PR004344 (antibody, human IgG1, kappa, V domains shown)
VH: B10 VH
VL: B1 VL with P15L, E17Q, L42Q, K44R, Q50R
B17: PR004334 (antibody, human IgG1, kappa, V domains shown)
VH: B1 VH with Y32N
VL: B10 VL with A34G
B18: PR004345 (antibody, human IgG1, kappa, V domains shown)
VH: B10 VH
VL: B1 VL with P15L, E17Q, S26N, L42Q, K44R, Q50R
B19: PR004331 (antibody, human IgG1, kappa, V domains shown)
VH: B1 VH with Q13K, Y32N, S49G, R89K, A90T
VL: B10 VL with A34G
B20: PR004340 (antibody, human IgG1, kappa, V domains shown)
VH: B10 VH
VL: B1 VL
B21: PR004329 (antibody, human IgG1, kappa, V domains shown)
VH: B10 VH with N104Q
VL: B10 VL with A34G
B22: PR004325 (antibody, human IgG1, kappa, V domains shown)
VH: B10 VH
VL: B10 VL with N33Q, A34G
B23: PR004338 (antibody, human IgG1, kappa, V domains shown)
VH: B1 VH with R19K, P41S, S49G, R89K, A90T, F112Y
VL: B10 VL with A34G
B24: PR004339 (antibody, human IgG1, kappa, V domains shown)
VH: B10 VH
VL: B1 VL with N35K, T36I
B25: PR004333 (antibody, human IgG1, kappa, V domains shown)
VH: B1 VH
VL: B10 VL with A34G
B26: PR004332 (antibody, human IgG1, kappa, V domains shown)
VH: B1 VH with Q13K, S49G, R89K, A90T, F112Y
VL: B10 VL with A34G
B27: PR004337 (antibody, human IgG1, kappa, V domains shown)
VH: B1 VH with R19K, Y32N, P41S, S49G, R89K, A90T
VL: B10 VL with A34G
B28: PR004336 (antibody, human IgG1, kappa, V domains shown)
VH: B1 VH with R19K, P41S, S49G, R89K, A90T
VL: B10 VL with A34G
B29: PR004327 (antibody, human IgG1, kappa, V domains shown)
VH: B10 VH with N30Q
VL: B10 VL with A34G

Molecular target: cynomolgus monkey CCR8 (cynomolgus monkey) (UniProt G7NYJ2)
Experiment: FACS, CHO-K1-CynoCCR8 cells

binding, binds:
B1, B2, B3, B4, B5, B6, B7, B8, B9

Molecular target: cynomolgus monkey CCR8 (cynomolgus monkey) (UniProt G7NYJ2)
Experiment: FACS on CHO-K1 cells overexpressing cynomolgus monkey CCR8

binding, binds:
B1, B2, B3, B4, B10, B11, B12, B5, B13, B14, B15, B6, B16, B17, B18, B19, B20, B7, B8, B21, B22, B23, B24, B9, B25, B26, B27, B28, B29
